Results published in article PMC9838835.

The chains behind the UniProt entries cited, without tags or fusion partners. Residues count along the entry.
UniProt P06276, residues 29-602: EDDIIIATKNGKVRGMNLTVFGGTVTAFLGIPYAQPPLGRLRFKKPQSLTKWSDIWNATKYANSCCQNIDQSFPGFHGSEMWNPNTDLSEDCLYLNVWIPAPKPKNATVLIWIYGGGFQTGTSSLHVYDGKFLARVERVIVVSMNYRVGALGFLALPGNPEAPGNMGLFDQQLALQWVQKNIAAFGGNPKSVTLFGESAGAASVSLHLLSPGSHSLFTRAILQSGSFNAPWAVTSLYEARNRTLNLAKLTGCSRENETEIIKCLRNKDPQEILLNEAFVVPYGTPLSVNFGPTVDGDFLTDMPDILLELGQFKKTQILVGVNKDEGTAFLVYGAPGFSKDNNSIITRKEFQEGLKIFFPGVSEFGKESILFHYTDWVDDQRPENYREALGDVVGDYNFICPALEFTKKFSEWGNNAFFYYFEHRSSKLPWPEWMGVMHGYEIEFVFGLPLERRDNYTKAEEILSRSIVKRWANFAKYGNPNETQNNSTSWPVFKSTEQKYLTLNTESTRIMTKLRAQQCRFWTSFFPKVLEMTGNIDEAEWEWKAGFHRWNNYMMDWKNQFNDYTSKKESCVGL

Target: Human butyrylcholinesterase (human) (UniProt P06276)
Experiment: affinity purification with mass spectrometry

Binder: PSPPLPPPPPPPPPPPPPPPPPPPPLP
- binding: binds

Results are given in words; binding and its absence hold for the method and conditions named. In cells and extracts the contact can be indirect. These calls come from enrichment with a bait or labelling near it, and not all partners need be listed.
